# In publication PMC7791547, “Biochemical characterization of an E. coli cell division factor FtsE shows ATPase cycles similar to the NBDs of ABC-transporters” (Bioscience Reports, 2021):
# These are yes or no findings as the source states them, for the method shown. Sequences can lack the tags named with a protein.
# T1: Full-length FtsE as yeast two-hybrid fusion (pGBT9 and pGAD424) (E. coli), P0A9R7
# T1 chain: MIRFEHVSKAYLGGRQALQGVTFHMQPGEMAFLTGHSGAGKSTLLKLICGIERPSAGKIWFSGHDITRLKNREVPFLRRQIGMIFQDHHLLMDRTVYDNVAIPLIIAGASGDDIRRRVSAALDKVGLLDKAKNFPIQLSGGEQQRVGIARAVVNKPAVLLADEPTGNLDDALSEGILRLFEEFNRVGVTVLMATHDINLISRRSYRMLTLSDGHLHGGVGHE
# Target: T1, Full-length FtsE as yeast two-hybrid …
# Experiment: two-hybrid; yeast two-hybrid, full-length FtsE in pGBT9 and pGAD424, growth in histidine-deficient media
# Settings: remark: other sources report otherwise
binder,measurement,value
"Full-length FtsE as yeast two-hybrid fusion (pGBT9 and pGAD424), P0A9R7 1-222 (protein) MIRFEHVSKAYLGGRQALQGVTFHMQPGEMAFLTGHSGAGKSTLLKLICGIERPSAGKIWFSGHDITRLKNREVPFLRRQIGMIFQDHHLLMDRTVYDNVAIPLIIAGASGDDIRRRVSAALDKVGLLDKAKNFPIQLSGGEQQRVGIARAVVNKPAVLLADEPTGNLDDALSEGILRLFEEFNRVGVTVLMATHDINLISRRSYRMLTLSDGHLHGGVGHE",binding,no binding
